# PubChem BioAssay AID504764 – Drosophila RNAi Screening Center – 2011
# Aim: 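Genome-wide screen for regulators of Notch-driven gene expression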 (primary screen)
# System: Drosophila Kc167 cells
# Reagent: long dsRNA against Drosophila genes
# Duration: about 5 days (4 days dsRNA, then 24 h after transfection)
# Challenge: transfection of constitutively active membrane-tethered Notch lacking the extracellular domain, read 24 h later
# Measurement: 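Light from a Notch-responsive E(spl)m3 luciferase reporter under active Notch, with control-promoter and no-Notch reporter wells to normalise; raw counts from paired wells a and b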
# Reading the numbers: induced reporter light, run 1, well a and induced reporter light, run 1, well b: higher = more light from the Notch target reporter with active Notch; control promoter light, run 1, well a and control promoter light, run 1, well b: higher = more light from the viral control promoter (cell number, transfection, viability); uninduced reporter light, run 1, well a: higher = more light from the Notch target reporter without active Notch
# Active means: 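Hit if the duplicate-averaged log2 ratio of induced to control-promoter light gives a plate-wise z beyond ±2, or induced to uninduced beyond ±1.8; weak-control or discordant-duplicate wells dropped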
# Meaning of the calls: active = modifier hit (raised or lowered Notch signal); inactive = not a hit
# In all, the deposit lists about 22,000 reagents; shown is a random part of those that have a named target and a result. Of all reagents, 403 (1.9%) are marked active. 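Unnormalised raw counts per well; ratio z-scores behind the hit calls and whether each hit raises or lowers signal are not deposited.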 The numbers tell different reagents against one gene apart. Not given: the amount of reagent.
"induced reporter light, run 1, well a","induced reporter light, run 1, well b","control promoter light, run 1, well a","control promoter light, run 1, well b","uninduced reporter light, run 1, well a",Call,predicted target,reagent no.
90155,65630,1.15e5,85865,7540,inactive,Cks85A (Cyclin-dependent kinase subunit 85A),1
69675,46990,56195,54745,3305,inactive,CG3213,1
1.40e5,1.11e5,1.08e5,76845,8382,inactive,X11L,1
86480,83280,94780,91990,12230,inactive,X11L,2
1.34e5,1.20e5,1.72e5,1.89e5,6860,inactive,NijA (Ninjurin A),1
1.22e5,1.32e5,1.60e5,1.42e5,8135,inactive,Lrp4 (LDL receptor related protein 4),1
1.63e5,1.49e5,2.09e5,1.93e5,11192,inactive,wapl (wings apart-like),1
1.68e5,1.49e5,1.67e5,1.62e5,11080,inactive,CG31189,1

The list goes on, starting with the last 2 of the part before.
"induced reporter light, run 1, well a","induced reporter light, run 1, well b","control promoter light, run 1, well a","control promoter light, run 1, well b","uninduced reporter light, run 1, well a",Call,predicted target,reagent no.
1.63e5,1.49e5,2.09e5,1.93e5,11192,inactive,wapl (wings apart-like),1
1.68e5,1.49e5,1.67e5,1.62e5,11080,inactive,CG31189,1
60155,1.29e5,90735,42070,13865,inactive,Msr-110,1
,,,,,inactive,CG31680,1
1.25e5,1.12e5,1.56e5,1.53e5,9350,inactive,CG3419 (retired record),1
2.04e5,1.47e5,1.88e5,1.76e5,12625,inactive,CG3419 (retired record),2
1.61e5,1.59e5,1.74e5,1.69e5,14095,inactive,CG6583,1
1.29e5,1.43e5,2.25e5,1.94e5,10490,inactive,bcn92,1
93205,80705,80205,56910,6690,inactive,CG5245,1
2.37e5,1.91e5,2.42e5,2.28e5,10905,inactive,PGAP1 (Post-GPI attachment to proteins 1),1
1.15e5,1.12e5,1.77e5,1.81e5,11050,inactive,Npc2g (Niemann-Pick type C-2g),1
1.95e5,1.64e5,1.53e5,1.83e5,12955,inactive,LS2 (Large Subunit 2),1
1.86e5,1.59e5,1.34e5,1.72e5,11845,inactive,ap (apterous),1
1.24e5,1.31e5,71925,77135,10905,inactive,CheA75a (Chemosensory protein A 75a),1
